According to US11130724B2, “Compound, resin, composition, resist pattern formation method, and circuit pattern formation method” (Mitsubishi Gas Chemical Company, Inc., priority 2015, dated 2021):

Test: Etching test / evaluation of etching resistance of underlayer film versus underlayer film of novolac
Details: underlayer film 200 nm (10 parts material, PGMEA 90, DTDPI 0.5, Nikalac 0.5), baked 240° C. 60 s and 400° C. 120 s; Ar:CF4:O2 = 50:5:5 sccm, 50 W, 20 Pa, 2 min; etching rate relative to novolac PSM4357 film

Compound	Etching resistance evaluation
CC(c1ccc(O)cc1)(c1ccc(O)cc1)c1ccc(-c2ccccc2)cc1 [P-1]	A (The etching rate was less than −15% to −10% as compared with the underlayer film of novolac.)
CC1(c2ccc(-c3ccccc3)cc2)c2c(ccc3ccc(O)cc23)Oc2ccc3ccc(O)cc3c21 [XBiN-2]	S (The etching rate was less than −15% as compared with the underlayer film of novolac.)
CC(c1ccc(-c2ccccc2)cc1)(c1cc(-c2ccc(O)cc2)ccc1O)c1cc(-c2ccc(O)cc2)ccc1O [BiP-2]	A (The etching rate was less than −15% to −10% as compared with the underlayer film of novolac.)
CC(c1ccc(O)cc1)(c1ccc(O)cc1)c1ccc(C2CCCCC2)cc1 [P-2]	A (The etching rate was less than −15% to −10% as compared with the underlayer film of novolac.)
CC(c1ccc(-c2ccccc2)cc1)(c1ccc(O)c(-c2ccccc2O)c1)c1ccc(O)c(-c2ccccc2O)c1 [BiP-3]	S (The etching rate was less than −15% as compared with the underlayer film of novolac.)
CC(c1ccc(-c2ccccc2)cc1)(c1c(O)ccc2ccccc12)c1c(O)ccc2ccccc12 [BiN-1]	A (The etching rate was less than −15% to −10% as compared with the underlayer film of novolac.)
CC1(c2ccc(C3CCCCC3)cc2)c2c(ccc3cc(O)ccc23)Oc2ccc3cc(O)ccc3c21 [XBiN-3]	S (The etching rate was less than −15% as compared with the underlayer film of novolac.)
CC1(c2ccc(-c3ccccc3)cc2)c2c(ccc3cc(O)ccc23)Oc2ccc3cc(O)ccc3c21 [XBiN-1]	S (The etching rate was less than −15% as compared with the underlayer film of novolac.)
CC1(c2ccc(-c3ccccc3)cc2)c2ccc(O)cc2Oc2cc(O)ccc21 [P-3]	B (The etching rate was −10% to +5% as compared with the underlayer film of novolac.)
CC1(c2ccc(C3CCCCC3)cc2)c2ccc(O)cc2Oc2cc(O)ccc21 [P-4]	B (The etching rate was −10% to +5% as compared with the underlayer film of novolac.)
CC(c1ccc(-c2ccccc2)cc1)(c1c(O)ccc2cc(O)ccc12)c1c(O)ccc2cc(O)ccc12 [BiN-2]	A (The etching rate was less than −15% to −10% as compared with the underlayer film of novolac.)
CC(c1ccc(C2CCCCC2)cc1)(c1ccc(O)c(-c2ccccc2O)c1)c1ccc(O)c(-c2ccccc2O)c1 [BiP-4]	S (The etching rate was less than −15% as compared with the underlayer film of novolac.)
CC(c1ccc(-c2ccccc2)cc1)(c1c(O)ccc2ccc(O)cc12)c1c(O)ccc2ccc(O)cc12 [BiN-3]	A (The etching rate was less than −15% to −10% as compared with the underlayer film of novolac.)
CC(c1ccc(C2CCCCC2)cc1)(c1c(O)ccc2cc(O)ccc12)c1c(O)ccc2cc(O)ccc12 [BiN-4]	A (The etching rate was less than −15% to −10% as compared with the underlayer film of novolac.)
CC(c1ccc(-c2ccccc2)cc1)(c1ccc(O)c(-c2ccccc2)c1)c1ccc(O)c(-c2ccccc2)c1 [BiP-1]	A (The etching rate was less than −15% to −10% as compared with the underlayer film of novolac.)
